The values that follow are results of earlier work, collected in patent US20250108142A1, “METHODS FOR TREATING LEAKAGE FROM A GASTROINTESTINAL SITE” (Ethicon, Inc., priority 2023, published 2025).

For this data set the following is noted: cited from earlier work.

For `CC(C)Cc1ccc(C(C)C(=O)O)cc1` (centres unmarked) [Ibuprofen, ibuprofen], the solubility in water entry is “about 21 mg/l” and the “solubility in water (words)” value was “minimum solubility”.
